PubChem BioAssay AID686937 – Drosophila RNAi Screening Center | 2013
The screen tested about 23,000 reagents; shown is a random part of those with a known target gene and a result. 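Reduced-secretion tags in replicate 1 do not always agree with the z-scores; no criterion for assigning the tags was given.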 Reagents against one gene are numbered here. A plus sign joins genes that one reagent is predicted to hit. No sequences are given here. Not given: the amount of reagent.

Screen: 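Genes whose loss weakens secretory pathway function in fly cells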 (primary screen)
System: Drosophila S2 cells expressing secreted horseradish peroxidase
Knock-down reagent: long dsRNA against Drosophila genes
Timing: about 5.5 days (5 days dsRNA, then 12 h reporter induction)
Conditions: reporter expression induced after 5 days of dsRNA, read 12 h later; inducer not stated
Read-out: 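After 5 days of dsRNA and 12 h of reporter induction, medium peroxidase read by chemiluminescence and scored as per-plate z-score; higher values mean more reporter released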
Reading the numbers: z-score: higher = more reporter secreted into medium

target	dsRNA no.	z-score, replicate 1	z-score, replicate 2	z-score, replicate 3	z-score, replicate 4	phenotype, replicate 1
Gr47a (Gustatory receptor 47a)	1	0	0.09			
CR42745 (retired record)	1	0.5	0.31			
if (inflated)	1	0.19	-0.16			
cn (cinnabar)	1	-0.07	-0.15			
stan (starry night)	1	-3.41	-3.52			reduced secretion
stan (starry night)	2	0.31	0.25			
ens (ensconsin)	1	0.47	0.38			
CG31221	1	-0.08	-0.05			
CG31221	2	0.18	0.09			
Obp49a (Odorant-binding protein 49a)	1	-0.16	0.02			
CG31810	1	0.41	0.43			
Wdr59 (WD repeat domain 59)	1	0.4	0.43			
CG34348	1	0.1	0.3			
CG34348	2	0.18	0.29			
Tsp29Fa (Tetraspanin 29Fa)	1	0.56	0.62			
Cad74A (Cadherin 74A)	1	0.01	-0.03			
CG11269	1	0.08	0.14			
CG1440	1	0.5	0.51			
Send2 (Spermathecal endopeptidase 2)	1	0.11	0.35			
PPYR1 (Protein phosphatase Y regulator 1)	1	0.44	0.55			
jim	1	0.25	0.27			
gnu (giant nuclei)	1	0.32	0.22			
prg (piragua)	1	0.91	0.67			
Naxd (NAD(P)HX dehydratase)	1	0.27	0.29			
CG5849	1	0.36	0.46			
CG13622	1	0.4	0.35			
CG32795	1	0.2	0.28			
CG32795	2	0.09	0.22			
Sema2a (Semaphorin 2a)	1	0.05	0.27			
Mics1 (Mitochondrial morphology and cristae structure 1)	1	0.13	0.11			
acs (arcus)	1	0.32	0.43			
lncRNA:CR33218 (long non-coding RNA:CR33218)	1	-1.09	-0.1			
CG17660	1	0.36	0.05			
CG7332	1	0.25	0.3			
Pdp1 (PAR-domain protein 1)	1	-3.61	-2.31			reduced secretion
Pdp1 (PAR-domain protein 1)	2	-4.04	-2.21			reduced secretion
Pdp1 (PAR-domain protein 1)	3	0.02	0.14			
Cpr49Ad (Cuticular protein 49Ad)	1	0.38	0.3			
Tsp42Eq (Tetraspanin 42Eq)	1	0.26	0.3			
CR43670 + CR43671 + CR43669	1	0.43	0.56			
CR43670 + CR43671 + CR43669	2	0.29	0.39			
Nlg1 (Neuroligin 1)	1	0.17	0.4			
Nlg1 (Neuroligin 1)	2	-0.01	-0.31			
Nlg1 (Neuroligin 1)	3	-0.12	0.4			
Nlg1 (Neuroligin 1)	4	0.09	0.33			
PDZ-GEF (PDZ domain-containing guanine nucleotide exchange factor)	1	0.22	0.23			
CG6683	1	0.16	0.16			
Pisd (Phosphatidylserine decarboxylase)	1	0.23	0.36			
CG5986	1	0.22	0.35			
RhoGAP54D (Rho GTPase activating protein at 54D)	1	-0.36	0.25			
CG3251	1	0.45	0.47			
Prp40 (pre-mRNA processing factor 40)	1	0.58	0.51			
Tbce (Tubulin-binding cofactor E)	1	0.34	0.43			
Vps29 (Vacuolar protein sorting 29)	1	0.07	0.34			
Tsp74F (Tetraspanin 74F)	1	-0.02	0.25			
RpS28a (Ribosomal protein S28a)	1	0.12	-0.19			
rtet (tetracycline resistance)	1	0.29	0.32			
Rfk (Riboflavin kinase)	1	0.61	0.65			
CG15760	1	-0.06	-0.02			
CG7329	1	-0.1	0.42			
CG10947	1	0.19	0.18			
CG8043	1	0.31	0.42			
iPLA2-VIA (calcium-independent phospholipase A2 VIA)	1	-0.68	0.05			
AdipoR (Adiponectin receptor)	1	0.21	0.33			
Cam (Calmodulin)	1	0.19	0.28	-0.1	-0.09	
Cam (Calmodulin)	2	0.2	0.24			
Scox (Synthesis of cytochrome c oxidase)	1	-0.63	-1.08			
Ugt301D1 (UDP-glycosyltransferase family 301 member D1)	1	0.26	0.33			
CG17154	1	0.31	0.12			
CG33630	1	0.31	-0.36			
Tollo	1	0.35	0.16			
CG31266	1	-0.68	0.53			
CG17928	1	-0.09	0.13			
Gr66a (Gustatory receptor 66a)	1	0.42	0.62			
Nup75 (Nucleoporin 75kD)	1	0.4	0.41			
CNT2 (Concentrative nucleoside transporter 2)	1	0.23	0.33			
CG3123	1	-0.14	0.03			
CG3630	1	0.25	-0.01			
RpS19b (Ribosomal protein S19b)	1	-0.51	-0.57			
CG18178	1	0.34	-0.02			
CG3566	1	0.31	0.29			
CG11668	1	0.49	0.55			

6 entries from above, ordered by “z-score, replicate 2”, low to high:
target	dsRNA no.	z-score, replicate 1	z-score, replicate 2	z-score, replicate 3	z-score, replicate 4	phenotype, replicate 1
Pdp1 (PAR-domain protein 1)	1	-3.61	-2.31			reduced secretion
Pdp1 (PAR-domain protein 1)	2	-4.04	-2.21			reduced secretion
lncRNA:CR33218 (long non-coding RNA:CR33218)	1	-1.09	-0.1			
CG17660	1	0.36	0.05			
Pdp1 (PAR-domain protein 1)	3	0.02	0.14			
CG7332	1	0.25	0.3			
